The record followed here is article doi:10.1101/2020.04.03.022855 (bioRxiv, 2020).

The assay concerns the target T1, OmpC·Skp3 complex (OmpC G8C-D335C, dual-labelled, with three Skp) (Escherichia coli) (UniProt P06996+P0AEU7).
T1 sequence (chain, AF555 and AF647 maleimide dyes on the cysteines at 8 and 335) 1: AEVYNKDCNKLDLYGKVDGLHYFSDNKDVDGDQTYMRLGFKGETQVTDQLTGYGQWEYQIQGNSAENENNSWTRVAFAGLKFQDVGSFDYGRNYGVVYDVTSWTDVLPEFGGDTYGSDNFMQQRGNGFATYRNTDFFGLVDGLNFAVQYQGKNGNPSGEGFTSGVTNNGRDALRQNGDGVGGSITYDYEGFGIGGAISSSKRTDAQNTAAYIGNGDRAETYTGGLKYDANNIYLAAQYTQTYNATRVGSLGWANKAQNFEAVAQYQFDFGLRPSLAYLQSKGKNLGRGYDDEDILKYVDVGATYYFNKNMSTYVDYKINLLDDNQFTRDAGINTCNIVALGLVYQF
T1 sequence (chain, AF555 and AF647 maleimide dyes on the cysteines at 8 and 335) 2: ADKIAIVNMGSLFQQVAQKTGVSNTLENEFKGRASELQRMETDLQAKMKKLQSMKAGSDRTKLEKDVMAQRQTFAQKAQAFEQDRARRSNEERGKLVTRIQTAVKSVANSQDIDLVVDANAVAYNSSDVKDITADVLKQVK
In words: single-molecule FRET.

These are yes or no findings as the source states them, for the method shown. Some entries that bind do so weakly or less than the wild type.

B1: Seventeen kilodalton protein (Skp), unlabelled (natural protein, Escherichia coli, UniProt P0AEU7 21-161, looked up)
chain: T1 sequence (chain, AF555 and AF647 maleimide dyes on the cysteines at 8 and 335) 2
B1: the binding result is listed as “binds”.
